{"source": "the supplement of paper PMC10077471", "note": "The full ranking holds about 1,900 compounds; the median of “excess over highest single agent (ExcessHSA) synergy score, 6x6 matrix” is about -83, and the lowest 2% start at about -370. The list shows a part of the results."}
{"test_system": "NCI-H446", "assay": "excess over highest single agent (ExcessHSA) synergy score, 6x6 matrix; higher = less synergy (more negative = stronger synergy)", "details": "72 h; CellTiter-Glo viability"}
{"smiles": "C[C@H]1COc2c(N3CCN(C)CC3)c(F)cc3c(=O)c(C(=O)O)cn1c23", "note": "+ Cc1sc2c(c1C)C(c1ccc(Cl)cc1)=N[C@@H](CC(=O)OC(C)(C)C)c1nnc(C)n1-2 [NCGC00250412-19]", "excess over highest single agent": -69.2}
{"smiles": "NC(CO)C(=O)NNCc1ccc(O)c(O)c1O", "note": "(stereo not given) + Cc1sc2c(c1C)C(c1ccc(Cl)cc1)=N[C@@H](CC(=O)OC(C)(C)C)c1nnc(C)n1-2 [NCGC00250412-19]", "excess over highest single agent": -50.6}
{"smiles": "O=C1c2c(O)cc(O)cc2O[C@H](c2cc(O)c(O)c(O)c2)[C@H]1O", "note": "+ Cc1sc2c(c1C)C(c1ccc(Cl)cc1)=N[C@@H](CC(=O)OC(C)(C)C)c1nnc(C)n1-2 [NCGC00250412-19]", "excess over highest single agent": -87.9}
{"smiles": "CC(C)(C(=O)NCC(F)(F)C(F)(F)F)C(=O)N[C@@H]1C(=O)Nc2ccccc2-c2ccccc21", "note": "+ Cc1sc2c(c1C)C(c1ccc(Cl)cc1)=N[C@@H](CC(=O)OC(C)(C)C)c1nnc(C)n1-2 [NCGC00250412-19]", "excess over highest single agent": -193}
{"smiles": "CCC(C)n1ncn(-c2ccc(N3CCN(c4ccc(OCC5COC(Cn6cncn6)(c6ccc(Cl)cc6Cl)O5)cc4)CC3)cc2)c1=O", "note": "(stereo not given) + Cc1sc2c(c1C)C(c1ccc(Cl)cc1)=N[C@@H](CC(=O)OC(C)(C)C)c1nnc(C)n1-2 [NCGC00250412-19]", "excess over highest single agent": -210}
{"smiles": "CCOc1cc(N)c(Cl)cc1C(=O)NCC1CN(Cc2ccc(F)cc2)CCO1", "note": "(stereo not given) + Cc1sc2c(c1C)C(c1ccc(Cl)cc1)=N[C@@H](CC(=O)OC(C)(C)C)c1nnc(C)n1-2 [NCGC00250412-19]", "excess over highest single agent": -9.59}
{"smiles": "C=CC(=O)Nc1cccc(Nc2nc(NC3CCC(N(C)C)CC3)nc3c2ncn3C(C)C)c1", "note": "(stereo not given) + Cc1sc2c(c1C)C(c1ccc(Cl)cc1)=N[C@@H](CC(=O)OC(C)(C)C)c1nnc(C)n1-2 [NCGC00250412-19]", "excess over highest single agent": -137}
{"smiles": "O=C(O)CCNC(=O)c1ccc(/N=N/c2ccc(O)c(C(=O)O)c2)cc1", "note": "+ Cc1sc2c(c1C)C(c1ccc(Cl)cc1)=N[C@@H](CC(=O)OC(C)(C)C)c1nnc(C)n1-2 [NCGC00250412-19]", "excess over highest single agent": -42.5}
{"smiles": "C[C@H]1[C@H](OC(=O)CCC(=O)O)O[C@@H]2O[C@@]3(C)CC[C@H]4[C@H](C)CC[C@@H]1[C@@]24OO3", "note": "+ Cc1sc2c(c1C)C(c1ccc(Cl)cc1)=N[C@@H](CC(=O)OC(C)(C)C)c1nnc(C)n1-2 [NCGC00250412-19]", "excess over highest single agent": -116}
{"smiles": "C=CCn1c(=O)c2cnc(Nc3ccc(N4CCN(C)CC4)cc3)nc2n1-c1cccc(C(C)(C)O)n1", "note": "+ Cc1sc2c(c1C)C(c1ccc(Cl)cc1)=N[C@@H](CC(=O)OC(C)(C)C)c1nnc(C)n1-2 [NCGC00250412-19]", "excess over highest single agent": -269}
{"smiles": "CCCCCN(CCC12CC3CC(CC(C3)C1)C2)C(=O)NCCCc1ccncc1", "note": "+ Cc1sc2c(c1C)C(c1ccc(Cl)cc1)=N[C@@H](CC(=O)OC(C)(C)C)c1nnc(C)n1-2 [NCGC00250412-19]", "excess over highest single agent": -174}
{"smiles": "O=C1CCC(N2C(=O)c3ccccc3C2=O)C(=O)N1", "note": "(stereo not given) + Cc1sc2c(c1C)C(c1ccc(Cl)cc1)=N[C@@H](CC(=O)OC(C)(C)C)c1nnc(C)n1-2 [NCGC00250412-19]", "excess over highest single agent": -255}
{"smiles": "COc1ccc(C(=O)c2c(C)n(CCN3CCOCC3)c3ccccc23)cc1", "note": "+ Cc1sc2c(c1C)C(c1ccc(Cl)cc1)=N[C@@H](CC(=O)OC(C)(C)C)c1nnc(C)n1-2 [NCGC00250412-19]", "excess over highest single agent": -118}
{"smiles": "C1Cc2[nH]nc(-c3nn[nH]n3)c2C1", "note": "+ Cc1sc2c(c1C)C(c1ccc(Cl)cc1)=N[C@@H](CC(=O)OC(C)(C)C)c1nnc(C)n1-2 [NCGC00250412-19]", "excess over highest single agent": -99.5}
{"smiles": "O=C(Nc1cccc(Nc2ncc(Br)c(NCCc3cnc[nH]3)n2)c1)N1CCCC1", "note": "+ Cc1sc2c(c1C)C(c1ccc(Cl)cc1)=N[C@@H](CC(=O)OC(C)(C)C)c1nnc(C)n1-2 [NCGC00250412-19]", "excess over highest single agent": -166}
{"smiles": "COc1nc(N)nc2c1ncn2[C@@H]1O[C@H](CO)[C@@H](O)[C@@H]1O", "note": "+ Cc1sc2c(c1C)C(c1ccc(Cl)cc1)=N[C@@H](CC(=O)OC(C)(C)C)c1nnc(C)n1-2 [NCGC00250412-19]", "excess over highest single agent": -136}
{"smiles": "COc1ccc2c(Oc3ccc(NC(=O)c4c(C)n(CC(C)(C)O)n(-c5ccccc5)c4=O)cc3F)ccnc2c1", "note": "+ Cc1sc2c(c1C)C(c1ccc(Cl)cc1)=N[C@@H](CC(=O)OC(C)(C)C)c1nnc(C)n1-2 [NCGC00250412-19]", "excess over highest single agent": -71.1}
{"smiles": "OC[C@H]1O[C@@H](n2cnc3c2N=CNC[C@H]3O)C[C@@H]1O", "note": "+ Cc1sc2c(c1C)C(c1ccc(Cl)cc1)=N[C@@H](CC(=O)OC(C)(C)C)c1nnc(C)n1-2 [NCGC00250412-19]", "excess over highest single agent": 11}
{"smiles": "CN(C)c1ccccc1CN1CCCN(Cc2ccccc2N(C)C)C1c1ccncc1", "note": "+ Cc1sc2c(c1C)C(c1ccc(Cl)cc1)=N[C@@H](CC(=O)OC(C)(C)C)c1nnc(C)n1-2 [NCGC00250412-19]", "excess over highest single agent": -30.5}
{"smiles": "O=C(/C=C/C=C/c1ccc2c(c1)OCO2)N1CCCCC1", "note": "+ Cc1sc2c(c1C)C(c1ccc(Cl)cc1)=N[C@@H](CC(=O)OC(C)(C)C)c1nnc(C)n1-2 [NCGC00250412-19]", "excess over highest single agent": 24.3}
{"smiles": "O=c1c2ccccc2nc2n1CCc1c-2[nH]c2ccccc12", "note": "+ Cc1sc2c(c1C)C(c1ccc(Cl)cc1)=N[C@@H](CC(=O)OC(C)(C)C)c1nnc(C)n1-2 [NCGC00250412-19]", "excess over highest single agent": -26.4}
{"smiles": "CN(C)c1ccc2cc(C(=O)N[C@@H](CCCN=C(N)CCl)C(=O)NCc3ccccc3)ccc2c1", "note": "+ Cc1sc2c(c1C)C(c1ccc(Cl)cc1)=N[C@@H](CC(=O)OC(C)(C)C)c1nnc(C)n1-2 [NCGC00250412-19]", "excess over highest single agent": -202}
{"smiles": "CCc1c(C(=O)C(N)=O)c2c(OCC(=O)O)cccc2n1Cc1ccccc1", "note": "+ Cc1sc2c(c1C)C(c1ccc(Cl)cc1)=N[C@@H](CC(=O)OC(C)(C)C)c1nnc(C)n1-2 [NCGC00250412-19]", "excess over highest single agent": 19.9}
{"smiles": "O=C1NC(=O)[C@@H](c2cn3c4c(cccc24)CCC3)[C@@H]1c1c[nH]c2ccccc12", "note": "+ Cc1sc2c(c1C)C(c1ccc(Cl)cc1)=N[C@@H](CC(=O)OC(C)(C)C)c1nnc(C)n1-2 [NCGC00250412-19]", "excess over highest single agent": -202}
{"smiles": "CCc1cnn2c(NCc3ccc[n+]([O-])c3)cc(N3CCCC[C@H]3CCO)nc12", "note": "+ Cc1sc2c(c1C)C(c1ccc(Cl)cc1)=N[C@@H](CC(=O)OC(C)(C)C)c1nnc(C)n1-2 [NCGC00250412-19]", "excess over highest single agent": -18.6}
